In paper PMC7819943, “Rice protein-binding microarrays: a tool to detect cis-acting elements near promoter regions in rice” one finds binding signal data, which are given here for 54 sequences.

The other results are listed elsewhere or left out.

The assay addresses T1, OsSMF1 (Oryza sativa, UniProt Q6ZLB0 1-436).
T1 sequence: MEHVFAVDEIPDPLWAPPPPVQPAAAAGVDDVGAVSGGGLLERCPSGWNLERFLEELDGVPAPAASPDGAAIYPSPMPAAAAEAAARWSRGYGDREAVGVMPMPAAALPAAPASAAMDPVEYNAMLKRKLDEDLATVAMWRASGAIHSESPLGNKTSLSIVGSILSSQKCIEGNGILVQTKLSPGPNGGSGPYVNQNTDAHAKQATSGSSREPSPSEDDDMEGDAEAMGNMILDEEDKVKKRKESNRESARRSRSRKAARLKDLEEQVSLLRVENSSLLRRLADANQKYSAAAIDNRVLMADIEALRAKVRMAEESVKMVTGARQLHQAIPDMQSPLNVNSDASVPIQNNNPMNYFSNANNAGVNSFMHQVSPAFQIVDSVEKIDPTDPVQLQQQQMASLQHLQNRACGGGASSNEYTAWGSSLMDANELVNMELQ
The experiment in a line: protein-binding microarray (RPBM); PBS, 2% BSA, 51.3 ng/ul salmon testes DNA, 50 uM zinc acetate, 200 nM TF, 25 C, 1 h; high values mean tight binding. To be noted: protein: recombinant; tags: N-terminal polyhistidine and DsRed monomer fusion (pET32a); chain copies: 2; label: CyDye5-dUTP incorporated in the synthesized complementary strand; 3' TTTTT single-stranded linker to array surface; dsDNA, one strand shown. Summed up: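 The binding signal for each feature is its fluorescence intensity in arbitrary units. An Axon 4000B scanner was used to read a custom Agilent array that had been made double-stranded with Cy5-dUTP primer extension, blocked with 2% BSA, incubated at 25 °C for 1 h with 200 nM protein in PBS, 2% BSA, salmon testes DNA and 50 µM zinc acetate, and washed. The protein was an N-terminal polyhistidine–DsRed transcription factor fusion from E. coli BL21-CodonPlus, purified on Ni–NTA.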
In the case of “TCTCGATCTCCCCGCCTATTTATGCTCGTCTCGTCACCCGCGGAGTCACCTAGTGCAG”, the binding signal was 3600 fluorescence intensity (a.u.).
The result for “CCATGCCATGTATAGCCGCGCTGCTGATGCGGCCCTCCAGCGGAGTCACCTAGTGCAG” reads 4440 fluorescence intensity (a.u.); that for “AAACGGATAAGTTAGTAAGTAATTTCTTCCCTCCTAATTTCGGAGTCACCTAGTGCAG”, 45900 fluorescence intensity (a.u.); that for “GGTATAAAAGATCCAGGAGAAGCATGCAACCCAGCAAGCCCGGAGTCACCTAGTGCAG”, 21300 fluorescence intensity (a.u.).
Take “AATTGGGATCAAAGCCTTCATGTTCATAGCAAATCAAGAGCGGAGTCACCTAGTGCAG”: the binding signal is 45900 fluorescence intensity (a.u.).
Next, “ATTCGGGAATTTCTGGGCGTGACACGTTGCCACTAATCCGCGGAGTCACCTAGTGCAG”: 6890 fluorescence intensity (a.u.); “AGACATATCCTTATTGTTTCAAATTTCAAACTGTATTATGCGGAGTCACCTAGTGCAG”: 3570 fluorescence intensity (a.u.).
The result for “TCCGCCGTTGACGACCACTCCCACGTGCCCTCCACTACACCGGAGTCACCTAGTGCAG” reads 3600 fluorescence intensity (a.u.); that for “TAATTCATCTCTACACACCCACGTGGATGGATATACTCGCCGGAGTCACCTAGTGCAG”, 12300 fluorescence intensity (a.u.).
The result for “TTCGGGCATACGCCACCCCGCCTTGTCATCCACCGCGCCCCGGAGTCACCTAGTGCAG” reads 7810 fluorescence intensity (a.u.); that for “GTCCGCTGGAGAGGCATCGACCACGTCATTTGACTGGTCGCGGAGTCACCTAGTGCAG”, 10600 fluorescence intensity (a.u.).
“AGAATGATGAACTAACTGTCCTCAAATAATCATGTCAGCTCGGAGTCACCTAGTGCAG”: the binding signal was 3590 fluorescence intensity (a.u.).
The result for “AAGTTTAACATTAAAACTTAGTTGTGGTTGATAAACATGGCGGAGTCACCTAGTGCAG” reads 28200 fluorescence intensity (a.u.).
The result for “GGTATTGTGTGTGTAGTGATGTGCATGTGTGTGTTGATTTCGGAGTCACCTAGTGCAG” reads 3610 fluorescence intensity (a.u.); that for “ACACTGCCGCAGCCATTAAAGCCAACAAAAGATGACCTTGCGGAGTCACCTAGTGCAG”, 3990 fluorescence intensity (a.u.).
The result for “CCGACCCTGCGTCACGGGCCCACATTGTCATACACGCCACCGGAGTCACCTAGTGCAG” reads 4000 fluorescence intensity (a.u.); that for “ACAGTAGTAGTTGAGGGATGTCAGATGAACTTATTCCGTGCGGAGTCACCTAGTGCAG”, 3440 fluorescence intensity (a.u.).
In the case of “GGTCCTGTGTAATTTTCTTCCGCGATGGCCACACGTGACGCGGAGTCACCTAGTGCAG”, the binding signal is 4310 fluorescence intensity (a.u.).
“GCATCCGGTGAGATCGATCTGATCGGATCGATCGATCATGCGGAGTCACCTAGTGCAG”: the binding signal is 4600 fluorescence intensity (a.u.).
On to “TGGAGTAGTGACTCGTGACGCAGCAACCGTTCGTCGCGCCCGGAGTCACCTAGTGCAG”, for which the binding signal was 11400 fluorescence intensity (a.u.).
Next, “GAATCCTTCCAACCCGGCCCACCCGTAAACCGACCTATAGCGGAGTCACCTAGTGCAG”: 3460 fluorescence intensity (a.u.).
Next, “CAAATCAACTGGCACACTAGTATACCCGAAGGCGAGTTTTCGGAGTCACCTAGTGCAG”: 3280 fluorescence intensity (a.u.); “CAACACTGCAACAGACCATACACGTCCTTAGCATGTTGCACGGAGTCACCTAGTGCAG”: 4400 fluorescence intensity (a.u.); “CAGTATATTCCAAGTTAACAGCTGTGCAGGACAAATCCACCGGAGTCACCTAGTGCAG”: 3260 fluorescence intensity (a.u.).
Next, “GGTCTCTGCGCTGTCGGTGGCGCTGCTATCGTGACGACGTCGGAGTCACCTAGTGCAG”: 3790 fluorescence intensity (a.u.); “TCAATCAACATGTATGTTGATGAATCGGATTCGTTCCGGTCGGAGTCACCTAGTGCAG”: 4420 fluorescence intensity (a.u.); “TCCTAATAAACTCCTCCAATTCCTCGACGAATCAGTTTTCCGGAGTCACCTAGTGCAG”: 11800 fluorescence intensity (a.u.).
As to “GGCATCGTGATGAAGAACGTCTCCAATCCAATCATCATCGCGGAGTCACCTAGTGCAG”, the binding signal is 3150 fluorescence intensity (a.u.).
The result for “CCTCATATTCCAAACTGACGGCGTCATCGCTGTCAAACGGCGGAGTCACCTAGTGCAG” reads 3300 fluorescence intensity (a.u.); that for “GCCATCCAACTATTTTCATGGATCAACATCATAGTAGTATCGGAGTCACCTAGTGCAG”, 3140 fluorescence intensity (a.u.); that for “ACAAATAAATCCTTAAATACACTAACTATCGAATGCACGCCGGAGTCACCTAGTGCAG”, 41300 fluorescence intensity (a.u.).
The result for “CCGCAGTCAAAATCTTGGAGGCCAGCTCAGATCTGTACTCCGGAGTCACCTAGTGCAG” reads 3630 fluorescence intensity (a.u.); that for “TTGCCGGTGTGTAGACCTTGCTCCCTTGCACTTTGGTGTGCGGAGTCACCTAGTGCAG”, 3470 fluorescence intensity (a.u.).
Consider “CAAACACACAAGCGCCCACTCGTCACACGCTATACGGCACCGGAGTCACCTAGTGCAG”, for which the binding signal was 3690 fluorescence intensity (a.u.).
Next, “CCTTTCAATCGAGGGTTGCCCGCCACGTAGCAGTGCGGTCCGGAGTCACCTAGTGCAG”: 10300 fluorescence intensity (a.u.).
The result for “GTAGCGGGCGCGATGCGTCACCGTTCTCTTGCTGCTGCTGCGGAGTCACCTAGTGCAG” reads 8990 fluorescence intensity (a.u.).
The result for “TGGAAGGAAATTAGTGCGTGCAAATGCGGATTCCGATATGCGGAGTCACCTAGTGCAG” reads 3190 fluorescence intensity (a.u.); that for “TGGATTGGACACGTAAACGTGGAACGAAGACTCGGTCAATCGGAGTCACCTAGTGCAG”, 5100 fluorescence intensity (a.u.); that for “GCCCGGCCCATCACCGTCACCCTCCCTCGTGTCCTCTTCACGGAGTCACCTAGTGCAG”, 3160 fluorescence intensity (a.u.).
As to “ACACTACTCCGTTCGTTTATTTTGACGTCATCGTATCTAACGGAGTCACCTAGTGCAG”, the binding signal is 9000 fluorescence intensity (a.u.).
Turning to “GGCTGGCGGGATCGGGCACGGCGATGATGTGGCGGCGGCGCGGAGTCACCTAGTGCAG”, the binding signal was 10500 fluorescence intensity (a.u.).
Next, “GACGGTGCCGGAGATGACGCAGCTCCGGTAGAACTGGCGGCGGAGTCACCTAGTGCAG”: 3980 fluorescence intensity (a.u.); “ATTGTGGCATGATTGCTGATTGCCATGGTTGACCTATATACGGAGTCACCTAGTGCAG”: 3200 fluorescence intensity (a.u.).
Regarding “TCTTCCCTTGCTGTGTCATCCAGTCCAATGGGTTAAACGGCGGAGTCACCTAGTGCAG”, the binding signal was 9530 fluorescence intensity (a.u.).
The result for “CCTCCGCTTCTGCTTCATCGCTGATGATCAGCTAATCGTCCGGAGTCACCTAGTGCAG” reads 3520 fluorescence intensity (a.u.).
As to “CCGGTTGTGGCTGGCCCTTTCGTCATCGCTGGTTGTGGTCCGGAGTCACCTAGTGCAG”, the binding signal was 4340 fluorescence intensity (a.u.).
“TACGCGATCTGATCCGCCCTTTTCCTCCGTCCCTGAGCTGCGGAGTCACCTAGTGCAG”: the binding signal was 28900 fluorescence intensity (a.u.).
Next, “ACCAGTGACTCATAGCATGACACATCAGTGTTAGTAAGAACGGAGTCACCTAGTGCAG”: 9600 fluorescence intensity (a.u.); “TGAAGTCAACGAGACAACTAGTAGTAGTTGTCCTTGAGACCGGAGTCACCTAGTGCAG”: 3530 fluorescence intensity (a.u.).
The result for “TCGCCGGCGCCCATGGAAGACACGGCGGTGGTGGCGTGGGCGGAGTCACCTAGTGCAG” reads 3140 fluorescence intensity (a.u.); that for “ATGTCGCAATGATTTTGACGGCCGACCGATCGGACCTTTACGGAGTCACCTAGTGCAG”, 3310 fluorescence intensity (a.u.).
On to “TTTATGTGATTGTCATTTATTTTACTGTGACTTGATTCATCGGAGTCACCTAGTGCAG”, for which the binding signal is 3570 fluorescence intensity (a.u.).
The result for “CATGCGTGAAATGTGACTAATATGTCTACTAATTGTCATCCGGAGTCACCTAGTGCAG” reads 4400 fluorescence intensity (a.u.); that for “GGAGTTTGGTTGGTTGGTGGTGTTCTTGACGGGGCATGGACGGAGTCACCTAGTGCAG”, 4790 fluorescence intensity (a.u.).
